In PubChem BioAssay (Tox21):
Where “and” joins values, the source holds several entries; their conditions need not be identical. Equal entries are not always repeated. This list was built around the results that the source calls inconclusive (neither active nor inactive); the mix of calls is not that of the screen. Potencies beside an inconclusive call are fits to weak or partial responses and may not hold up. A structure can be active in one record and inactive in another. Calls of active or inactive are those of the source. Calls follow the shape of the dose curve; as a rule, active = well fitted inhibition curve with a large enough effect in the repeat runs; inconclusive = weak or mixed curves; inactive = no such curve, though single readings can be large or run the other way.
% is scaled to controls: 0 for no effect and ±100 for the full control effect; potency is read from the fitted curve at half-maximal effect.
Also: nearly all actives have a fitted effect of over 50% in size.

Protein sequences, listed by entry. Tags and fused reporters are not part of them.
UniProt P11712, whole entry, looked up: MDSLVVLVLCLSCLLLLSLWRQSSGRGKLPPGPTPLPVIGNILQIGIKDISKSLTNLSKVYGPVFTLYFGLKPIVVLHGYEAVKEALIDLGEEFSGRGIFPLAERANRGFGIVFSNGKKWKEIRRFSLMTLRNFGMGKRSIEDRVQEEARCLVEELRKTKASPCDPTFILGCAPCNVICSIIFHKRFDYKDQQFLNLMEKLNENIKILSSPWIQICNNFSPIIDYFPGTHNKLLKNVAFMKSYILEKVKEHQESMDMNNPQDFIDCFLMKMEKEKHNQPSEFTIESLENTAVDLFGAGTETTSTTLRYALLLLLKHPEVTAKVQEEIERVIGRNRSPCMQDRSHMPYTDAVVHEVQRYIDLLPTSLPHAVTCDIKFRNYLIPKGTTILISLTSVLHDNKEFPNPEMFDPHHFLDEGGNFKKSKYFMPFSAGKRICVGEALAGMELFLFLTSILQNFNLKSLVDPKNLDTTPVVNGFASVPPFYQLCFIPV
UniProt P05177, whole entry, looked up: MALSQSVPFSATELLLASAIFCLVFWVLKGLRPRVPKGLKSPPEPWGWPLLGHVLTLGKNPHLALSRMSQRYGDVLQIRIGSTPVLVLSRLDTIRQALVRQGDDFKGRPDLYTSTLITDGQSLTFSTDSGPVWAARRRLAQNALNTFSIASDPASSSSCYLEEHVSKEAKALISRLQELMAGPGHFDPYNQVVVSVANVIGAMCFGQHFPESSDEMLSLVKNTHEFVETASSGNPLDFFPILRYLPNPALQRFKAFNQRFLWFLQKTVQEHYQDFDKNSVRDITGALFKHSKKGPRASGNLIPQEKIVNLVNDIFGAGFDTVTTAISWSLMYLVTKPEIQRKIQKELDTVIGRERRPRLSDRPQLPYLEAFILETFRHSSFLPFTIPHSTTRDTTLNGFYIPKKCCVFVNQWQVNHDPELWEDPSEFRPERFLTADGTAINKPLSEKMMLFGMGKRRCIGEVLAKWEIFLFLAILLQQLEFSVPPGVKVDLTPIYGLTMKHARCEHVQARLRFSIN

Each compound was assayed against Cytochrome P450 2C9 (Homo sapiens) (UniProt P11712) (assay: Cytochrome P450 Family 2 Subfamily C Member 9 (CYP2C9) small molecule antagonists: luciferase reporter qHTS assay (AID 1671198)). Settings: P450-Glo CYP2C9 enzyme assay, luciferin luminescence; series mostly up to 115 µM.
Summary of the method: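 CYP2C9 activity was measured with a P450-Glo proluciferin substrate. Enzyme–substrate mix was held with compound for 10 min at room temperature, then NADPH regeneration solution was added for 1 h at 37C. Luciferin product was read as luminescence.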
With CCCCCCCCn1cc[n+](C)c1 the Potency was inconclusive: 63.2 µM [inhibitor, partial curve].
With CCS(=O)(=O)C(C)(C)S(=O)(=O)CC the Potency was “inactive”.
CCN(CC)C(=O)[C@@H]1C=C2c3cccc4[nH]cc(c34)C[C@H]2N(C)C1 was tested, and the Potency was inconclusive: 104 µM [inhibitor, partial curve].
In the case of N#CCc1ccccc1, the Potency is reported as “inactive”.
In the case of CC(C)(C)c1ccccc1O, the Potency is reported as inconclusive: 79.6 µM [inhibitor, partial curve, poor fit].
For C#CCO, the Potency was “inactive”.
In the case of CNC(=O)Oc1cccc2c1OC(C)(C)C2, the Potency is reported as inconclusive: 91.3 µM [inhibitor, partial curve, poor fit] and inconclusive: 71 µM [inhibitor, partial curve, poor fit].
With Nc1ccc(Cl)cc1 the Potency was active: 39.9 µM and active: 32.3 µM.
In the case of CC1OC(C)OC(C)O1 (centres undefined), the Potency is reported as inconclusive: 17.8 µM [inhibitor, full curve, poor fit].
ClCC(Br)CBr (centres undefined) was tested, and the Potency was “inactive”.
With C=CC(=O)OCCO the Potency was inconclusive: 90.7 µM [inhibitor, single point] and inactive.
For CC(Cc1ccc2c(c1)OCO2)NO (centres undefined), the Potency was active: 34.4 µM.
O=C(O)c1cccc(Cl)c1 was tested, and the Potency was inconclusive: 31.8 µM [inhibitor, full curve, poor fit].
In the case of O=Cc1ccco1, the Potency is reported as inconclusive: 77 µM [inhibitor, partial curve, poor fit].
In the case of NP(N)(=O)NC(=O)c1ccc(F)cc1, the Potency is reported as “inactive”.
O=C(O)COc1ccc(Cl)cc1Cl was tested, and the Potency was inconclusive: 35.5 µM [inhibitor, partial curve] and inconclusive: 71 µM [inhibitor, partial curve].
Nn1cnnc1 was tested, and the Potency was inconclusive: 39.9 µM [inhibitor, partial curve, poor fit].
CCN(CC)N=O was tested, and the Potency was inconclusive: 79.6 µM [inhibitor, single point].
FC(Cl)(Cl)Cl was tested, and the Potency was “inactive”.
In the case of CCOc1nc(C(Cl)(Cl)Cl)ns1, the Potency is reported as inconclusive: 22.4 µM [inhibitor, full curve].
With C[C@]12CCC(=O)C(O)=C1CC[C@@H]1[C@@H]2CC[C@]2(C)C(=O)CC[C@@H]12 the Potency was inconclusive: 35.6 µM [inhibitor, partial curve] and inconclusive: 21.9 µM [inhibitor, partial curve].
For O=C(NCc1cccnc1)Nc1ccc([N+](=O)[O-])cc1, the Potency was active: 5.03 µM.
With COC(=O)c1ccccc1S(=O)(=O)NC(=O)Nc1nc(C)nc(OC)n1 the Potency was inconclusive: 35.3 µM [inhibitor, partial curve].
COP(=O)(OC)O/C(=C/Cl)c1cc(Cl)c(Cl)cc1Cl was tested, and the Potency was active: 23.7 µM.
For CNC(=O)O/N=C(\SC)C(=O)N(C)C, the Potency was “inactive”.
For Nc1cccnc1, the Potency was inconclusive: 64.5 µM [inhibitor, partial curve] and inactive.
CC(Br)C(=O)O (centres undefined) was tested, and the Potency was inconclusive: 63.3 µM [inhibitor, partial curve].
In the case of CC(C)(Cl)[N+](=O)[O-], the Potency is reported as inconclusive: 56.7 µM [inhibitor, partial curve].
With CC(C(O)c1ccccc1)N(C)C/C=C/c1ccccc1 (centres undefined) the Potency was inconclusive: 15.5 µM [inhibitor].
For O=S(=O)(C(Cl)(Cl)Cl)C(Cl)(Cl)Cl, the Potency was active: 11.2 µM.
O=c1n(Cl)c(=O)n(Cl)c(=O)n1Cl was tested, and the Potency was inconclusive: 71 µM [inhibitor, partial curve, poor fit].
For Cc1ccc2c(c1)C1CN(C)CCC1N2 (centres undefined), the activity change, negative = inhibition was inactive: 0.693% [at 23.6 µM].
CC(Oc1ccc(Cl)cc1Cl)C(=O)O (centres undefined) was tested, and the Potency was active: 35.7 µM and active: 71 µM.
For CC(C)NC(C)C, the Potency was “inactive”.
CC1C=[C-]C=C1.[C-]#[O+].[C-]#[O+].[C-]#[O+].[Mn] was tested, and the Potency was inconclusive: 35.3 µM [inhibitor, partial curve, poor fit].
With CCNc1nc(Cl)nc(NCC)n1 the Potency was “inactive”.
For O=C(O)c1ccccn1, the Potency was “inactive and inconclusive: 17.4 µM [inhibitor, full curve]”.

These compounds were tested against Cytochrome P450 1A2 (Homo sapiens) (UniProt P05177) (assay: Cytochrome P450 Family 1 Subfamily A Member 2 (CYP1A2) small molecule antagonists: luciferase reporter qHTS assay (AID 1671199)). Settings: P450-Glo CYP1A2 enzyme, luciferin luminescence, 1 h; series mostly up to 115 µM.
Summary of the method: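 Luminescence from luciferin formed by CYP1A2 from a proluciferin substrate, read 20 min after detection reagent. Compound was pre-incubated 10 min with enzyme-substrate, and reaction started with NADPH regeneration solution for 1 h at room temperature; furafylline control.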
For CCCCCCCCn1cc[n+](C)c1, the Potency was inconclusive: 71.7 µM [inhibitor, partial curve, poor fit].
For CCS(=O)(=O)C(C)(C)S(=O)(=O)CC, the Potency was “inactive”.
CCN(CC)C(=O)[C@@H]1C=C2c3cccc4[nH]cc(c34)C[C@H]2N(C)C1 was tested, and the Potency was inconclusive: 117 µM [inhibitor, partial curve].
In the case of N#CCc1ccccc1, the Potency is reported as inconclusive: 64.8 µM [inhibitor, partial curve].
With CC(C)(C)c1ccccc1O the Potency was inconclusive: 57.1 µM [inhibitor, partial curve, poor fit] and inconclusive: 71 µM [inhibitor, partial curve].
In the case of C#CCO, the Potency is reported as inconclusive: 57.5 µM [inhibitor, partial curve].
CNC(=O)Oc1cccc2c1OC(C)(C)C2 was tested, and the Potency was inconclusive: 40.8 µM [inhibitor, partial curve] and inconclusive: 39.9 µM [inhibitor, partial curve].
Nc1ccc(Cl)cc1 was tested, and the Potency was active: 63.3 µM and active: 39.9 µM and active: 57.4 µM.
With CC1OC(C)OC(C)O1 (centres undefined) the Potency was inconclusive: 31.7 µM [inhibitor, partial curve] and inconclusive: 27.5 µM [inhibitor, partial curve, poor fit].
With ClCC(Br)CBr (centres undefined) the Potency was inconclusive: 39.7 µM [inhibitor, partial curve].
With C=CC(=O)OCCO the Potency was inconclusive: 32.2 µM [inhibitor, full curve] and inconclusive: 35.6 µM [inhibitor, partial curve].
With CC(Cc1ccc2c(c1)OCO2)NO (centres undefined) the Potency was active: 6.11 µM.
With O=C(O)c1cccc(Cl)c1 the Potency was active: 40 µM.
O=Cc1ccco1 was tested, and the Potency was inconclusive: 68.6 µM [inhibitor, partial curve, poor fit].
NP(N)(=O)NC(=O)c1ccc(F)cc1 was tested, and the Potency was inconclusive: 32.3 µM [inhibitor, partial curve, poor fit].
For O=C(O)COc1ccc(Cl)cc1Cl, the Potency was inconclusive: 71.3 µM [inhibitor] and inconclusive: 79.6 µM [inhibitor, partial curve, poor fit].
Nn1cnnc1 was tested, and the Potency was inconclusive: 61.2 µM [inhibitor, partial curve] and inconclusive: 63.3 µM [inhibitor, partial curve].
With CCN(CC)N=O the Potency was inconclusive: 71.3 µM [inhibitor, partial curve] and inactive.
FC(Cl)(Cl)Cl was tested, and the Potency was inconclusive: 70.8 µM [inhibitor, single point].
CCOc1nc(C(Cl)(Cl)Cl)ns1 was tested, and the Potency was inconclusive: 20 µM [inhibitor, full curve].
For C[C@]12CCC(=O)C(O)=C1CC[C@@H]1[C@@H]2CC[C@]2(C)C(=O)CC[C@@H]12, the Potency was inconclusive: 56.4 µM [inhibitor, partial curve, poor fit].
O=C(NCc1cccnc1)Nc1ccc([N+](=O)[O-])cc1 was tested, and the Potency was active: 17.8 µM.
In the case of COC(=O)c1ccccc1S(=O)(=O)NC(=O)Nc1nc(C)nc(OC)n1, the Potency is reported as inconclusive: 62.8 µM [inhibitor, partial curve].
For COP(=O)(OC)O/C(=C/Cl)c1cc(Cl)c(Cl)cc1Cl, the Potency was active: 2.66 µM.
With CNC(=O)O/N=C(\SC)C(=O)N(C)C the Potency was inconclusive: 34.6 µM [inhibitor, partial curve] and inactive.
With Nc1cccnc1 the Potency was inconclusive: 35.6 µM [inhibitor, single point].
CC(Br)C(=O)O (centres undefined) was tested, and the Potency was inconclusive: 90.4 µM [inhibitor, single point].
In the case of CC(C)(Cl)[N+](=O)[O-], the Potency is reported as inconclusive: 35.7 µM [inhibitor, partial curve].
With CC(C(O)c1ccccc1)N(C)C/C=C/c1ccccc1 (centres undefined) the Potency was inconclusive: 14.4 µM [inhibitor, partial curve].
With O=S(=O)(C(Cl)(Cl)Cl)C(Cl)(Cl)Cl the Potency was active: 22.4 µM.
With O=c1n(Cl)c(=O)n(Cl)c(=O)n1Cl the Potency was inconclusive: 79.6 µM [inhibitor, single point].
With Cc1ccc2c(c1)C1CN(C)CCC1N2 (centres undefined) the Potency was inconclusive: 6.28 µM [inhibitor, partial curve].
In the case of CC(Oc1ccc(Cl)cc1Cl)C(=O)O (centres undefined), the Potency is reported as inconclusive: 63.5 µM [inhibitor, partial curve, poor fit].
For CC(C)NC(C)C, the Potency was inconclusive: 62.1 µM [inhibitor, partial curve, poor fit] and inactive.
For CC1C=[C-]C=C1.[C-]#[O+].[C-]#[O+].[C-]#[O+].[Mn], the Potency was inconclusive: 39.9 µM [inhibitor, partial curve] and inconclusive: 39.6 µM [inhibitor].
For CCNc1nc(Cl)nc(NCC)n1, the Potency was inconclusive: 7.23 µM [inhibitor, full curve].
O=C(O)c1ccccn1 was tested, and the Potency was inconclusive: 81.5 µM [inhibitor, partial curve, poor fit] and inactive.
